# Test results from the supplement of paper PMC12067093, “Discovery and optimisation of a covalent ligand for TRIM25 and its application to targeted protein ubiquitination” (Chemical Science, 2025).
# Amino acid sequences for entries named in this document (tags omitted). A change or cut given only in a name is not applied to a line headed by its entry.
# UniProt Q9UK39: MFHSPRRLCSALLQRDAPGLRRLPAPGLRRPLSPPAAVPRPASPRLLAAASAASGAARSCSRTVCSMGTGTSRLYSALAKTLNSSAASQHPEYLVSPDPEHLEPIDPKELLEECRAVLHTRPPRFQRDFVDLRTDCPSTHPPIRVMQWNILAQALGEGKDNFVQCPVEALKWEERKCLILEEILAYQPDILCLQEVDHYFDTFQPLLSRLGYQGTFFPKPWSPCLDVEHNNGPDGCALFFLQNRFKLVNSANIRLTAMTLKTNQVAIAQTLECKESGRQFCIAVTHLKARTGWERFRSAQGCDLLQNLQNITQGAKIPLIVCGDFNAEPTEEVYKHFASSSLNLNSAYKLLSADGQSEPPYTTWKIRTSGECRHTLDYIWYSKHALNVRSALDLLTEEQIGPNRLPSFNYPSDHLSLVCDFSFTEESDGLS
# UniProt Q9BVI4: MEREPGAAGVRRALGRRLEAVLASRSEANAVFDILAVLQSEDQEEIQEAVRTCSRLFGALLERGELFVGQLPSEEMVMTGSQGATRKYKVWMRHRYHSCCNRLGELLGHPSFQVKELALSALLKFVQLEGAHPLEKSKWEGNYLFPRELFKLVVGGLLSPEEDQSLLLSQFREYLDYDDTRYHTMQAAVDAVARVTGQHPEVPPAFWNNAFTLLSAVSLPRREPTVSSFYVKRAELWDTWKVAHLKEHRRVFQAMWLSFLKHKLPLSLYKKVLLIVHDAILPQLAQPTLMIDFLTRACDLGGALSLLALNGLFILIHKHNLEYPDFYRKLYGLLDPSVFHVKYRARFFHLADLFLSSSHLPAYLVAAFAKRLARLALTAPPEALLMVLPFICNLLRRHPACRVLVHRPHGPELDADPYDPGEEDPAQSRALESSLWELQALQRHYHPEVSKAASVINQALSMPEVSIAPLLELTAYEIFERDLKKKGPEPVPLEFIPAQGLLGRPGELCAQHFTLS
# UniProt O15226: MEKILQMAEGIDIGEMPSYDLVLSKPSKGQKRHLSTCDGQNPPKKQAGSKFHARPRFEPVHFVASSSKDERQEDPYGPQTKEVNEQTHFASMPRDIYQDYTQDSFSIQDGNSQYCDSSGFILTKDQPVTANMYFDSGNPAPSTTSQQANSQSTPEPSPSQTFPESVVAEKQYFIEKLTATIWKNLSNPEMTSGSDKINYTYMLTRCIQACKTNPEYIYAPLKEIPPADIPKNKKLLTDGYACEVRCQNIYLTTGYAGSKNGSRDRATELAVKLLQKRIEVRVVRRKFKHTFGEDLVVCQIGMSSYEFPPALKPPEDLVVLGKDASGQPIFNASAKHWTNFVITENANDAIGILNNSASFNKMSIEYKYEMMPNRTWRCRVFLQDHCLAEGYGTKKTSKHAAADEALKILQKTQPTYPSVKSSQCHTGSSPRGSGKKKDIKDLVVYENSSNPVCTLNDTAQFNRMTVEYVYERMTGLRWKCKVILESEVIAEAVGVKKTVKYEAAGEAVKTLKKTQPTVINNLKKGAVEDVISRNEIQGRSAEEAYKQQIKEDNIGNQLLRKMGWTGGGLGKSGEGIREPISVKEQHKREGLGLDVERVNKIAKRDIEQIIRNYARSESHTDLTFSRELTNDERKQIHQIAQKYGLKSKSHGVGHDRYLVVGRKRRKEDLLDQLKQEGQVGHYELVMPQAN
# UniProt Q9NSY0: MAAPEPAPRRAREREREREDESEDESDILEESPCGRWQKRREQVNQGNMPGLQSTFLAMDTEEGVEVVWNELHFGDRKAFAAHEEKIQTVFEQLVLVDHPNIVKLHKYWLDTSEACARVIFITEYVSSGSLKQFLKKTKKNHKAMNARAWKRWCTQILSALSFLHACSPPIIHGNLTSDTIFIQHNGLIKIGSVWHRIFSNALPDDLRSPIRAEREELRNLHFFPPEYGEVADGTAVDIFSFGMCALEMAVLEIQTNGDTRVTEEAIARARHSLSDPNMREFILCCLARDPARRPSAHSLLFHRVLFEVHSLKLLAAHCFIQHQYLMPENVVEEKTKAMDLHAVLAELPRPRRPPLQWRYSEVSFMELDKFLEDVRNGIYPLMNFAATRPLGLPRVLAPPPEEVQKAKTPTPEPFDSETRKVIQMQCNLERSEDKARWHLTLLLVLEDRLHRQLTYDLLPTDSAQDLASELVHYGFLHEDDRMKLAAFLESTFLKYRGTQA
# UniProt Q9Y639: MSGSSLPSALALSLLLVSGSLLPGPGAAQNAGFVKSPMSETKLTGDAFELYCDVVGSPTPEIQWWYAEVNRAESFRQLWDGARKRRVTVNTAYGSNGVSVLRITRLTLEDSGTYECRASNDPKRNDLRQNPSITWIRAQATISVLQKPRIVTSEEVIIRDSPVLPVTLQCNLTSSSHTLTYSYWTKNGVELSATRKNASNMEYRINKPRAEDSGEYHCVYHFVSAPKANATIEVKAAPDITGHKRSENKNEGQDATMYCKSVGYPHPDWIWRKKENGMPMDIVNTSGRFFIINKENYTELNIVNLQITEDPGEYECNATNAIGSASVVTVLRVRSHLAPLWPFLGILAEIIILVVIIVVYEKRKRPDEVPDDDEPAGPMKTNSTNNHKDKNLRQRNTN
# UniProt O43847: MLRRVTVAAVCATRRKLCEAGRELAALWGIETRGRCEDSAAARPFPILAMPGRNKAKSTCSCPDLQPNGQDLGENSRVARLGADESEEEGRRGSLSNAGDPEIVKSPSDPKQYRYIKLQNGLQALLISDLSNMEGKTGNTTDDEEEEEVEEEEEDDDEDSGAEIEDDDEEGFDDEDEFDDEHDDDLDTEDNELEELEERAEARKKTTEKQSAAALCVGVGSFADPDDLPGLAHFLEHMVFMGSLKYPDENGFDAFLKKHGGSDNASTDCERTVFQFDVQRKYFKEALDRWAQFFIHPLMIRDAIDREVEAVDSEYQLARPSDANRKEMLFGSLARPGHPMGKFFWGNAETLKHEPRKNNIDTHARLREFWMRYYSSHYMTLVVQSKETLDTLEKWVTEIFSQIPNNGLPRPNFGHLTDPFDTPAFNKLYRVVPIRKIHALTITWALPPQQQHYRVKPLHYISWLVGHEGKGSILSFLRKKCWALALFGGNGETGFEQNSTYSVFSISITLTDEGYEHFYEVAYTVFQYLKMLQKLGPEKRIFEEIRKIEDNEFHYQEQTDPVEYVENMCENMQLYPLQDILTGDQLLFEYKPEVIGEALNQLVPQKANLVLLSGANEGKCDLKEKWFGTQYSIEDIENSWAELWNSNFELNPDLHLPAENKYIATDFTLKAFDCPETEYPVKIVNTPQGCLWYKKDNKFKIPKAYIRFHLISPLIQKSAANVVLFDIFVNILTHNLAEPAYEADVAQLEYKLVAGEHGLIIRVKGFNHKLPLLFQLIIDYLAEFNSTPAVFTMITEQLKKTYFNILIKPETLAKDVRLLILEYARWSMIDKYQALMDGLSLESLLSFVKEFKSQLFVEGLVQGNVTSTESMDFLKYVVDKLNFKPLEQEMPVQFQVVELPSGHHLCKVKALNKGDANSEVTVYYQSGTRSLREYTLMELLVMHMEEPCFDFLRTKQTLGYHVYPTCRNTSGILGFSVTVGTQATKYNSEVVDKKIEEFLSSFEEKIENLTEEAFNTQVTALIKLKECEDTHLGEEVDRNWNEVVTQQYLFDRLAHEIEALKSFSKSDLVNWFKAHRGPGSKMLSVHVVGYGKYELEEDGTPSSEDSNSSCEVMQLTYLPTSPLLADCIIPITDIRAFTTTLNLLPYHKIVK
# UniProt O75607: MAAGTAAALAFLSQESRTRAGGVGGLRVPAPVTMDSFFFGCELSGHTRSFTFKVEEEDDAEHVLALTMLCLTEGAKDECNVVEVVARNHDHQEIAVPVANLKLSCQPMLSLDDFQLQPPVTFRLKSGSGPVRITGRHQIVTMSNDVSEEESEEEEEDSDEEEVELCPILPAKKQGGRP
# UniProt O15118: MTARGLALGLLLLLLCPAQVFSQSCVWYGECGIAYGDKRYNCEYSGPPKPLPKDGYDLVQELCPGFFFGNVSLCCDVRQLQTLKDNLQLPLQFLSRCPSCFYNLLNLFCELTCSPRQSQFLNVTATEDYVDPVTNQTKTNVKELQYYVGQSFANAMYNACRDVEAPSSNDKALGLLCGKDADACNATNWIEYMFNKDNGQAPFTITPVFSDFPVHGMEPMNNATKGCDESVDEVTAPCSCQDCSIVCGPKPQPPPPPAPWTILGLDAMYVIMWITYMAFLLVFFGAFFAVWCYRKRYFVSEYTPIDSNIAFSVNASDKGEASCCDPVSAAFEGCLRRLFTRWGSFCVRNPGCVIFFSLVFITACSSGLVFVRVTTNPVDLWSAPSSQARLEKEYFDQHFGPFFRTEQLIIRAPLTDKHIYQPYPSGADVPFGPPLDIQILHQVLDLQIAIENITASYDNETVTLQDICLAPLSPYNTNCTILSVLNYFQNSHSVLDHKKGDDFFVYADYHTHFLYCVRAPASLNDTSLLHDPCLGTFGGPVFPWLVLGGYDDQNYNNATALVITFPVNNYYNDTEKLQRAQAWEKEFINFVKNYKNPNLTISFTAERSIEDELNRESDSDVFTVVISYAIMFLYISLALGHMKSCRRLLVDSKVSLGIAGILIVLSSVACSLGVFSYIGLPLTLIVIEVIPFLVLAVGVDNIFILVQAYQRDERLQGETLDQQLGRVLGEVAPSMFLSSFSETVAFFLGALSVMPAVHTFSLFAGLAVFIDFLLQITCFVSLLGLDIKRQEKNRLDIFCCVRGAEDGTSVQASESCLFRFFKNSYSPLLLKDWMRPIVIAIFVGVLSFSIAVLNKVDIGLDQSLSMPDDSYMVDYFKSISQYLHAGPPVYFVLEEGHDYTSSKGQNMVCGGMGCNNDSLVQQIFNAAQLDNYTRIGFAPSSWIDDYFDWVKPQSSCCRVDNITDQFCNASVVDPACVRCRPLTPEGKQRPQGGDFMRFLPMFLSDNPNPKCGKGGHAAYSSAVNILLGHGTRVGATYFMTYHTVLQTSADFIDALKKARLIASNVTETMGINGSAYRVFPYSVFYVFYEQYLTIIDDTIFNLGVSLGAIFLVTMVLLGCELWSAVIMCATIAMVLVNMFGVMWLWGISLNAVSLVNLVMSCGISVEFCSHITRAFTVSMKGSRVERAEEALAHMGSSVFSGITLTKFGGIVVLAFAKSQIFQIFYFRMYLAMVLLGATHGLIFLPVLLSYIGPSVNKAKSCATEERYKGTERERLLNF
# UniProt Q86UT6, whole entry, looked up: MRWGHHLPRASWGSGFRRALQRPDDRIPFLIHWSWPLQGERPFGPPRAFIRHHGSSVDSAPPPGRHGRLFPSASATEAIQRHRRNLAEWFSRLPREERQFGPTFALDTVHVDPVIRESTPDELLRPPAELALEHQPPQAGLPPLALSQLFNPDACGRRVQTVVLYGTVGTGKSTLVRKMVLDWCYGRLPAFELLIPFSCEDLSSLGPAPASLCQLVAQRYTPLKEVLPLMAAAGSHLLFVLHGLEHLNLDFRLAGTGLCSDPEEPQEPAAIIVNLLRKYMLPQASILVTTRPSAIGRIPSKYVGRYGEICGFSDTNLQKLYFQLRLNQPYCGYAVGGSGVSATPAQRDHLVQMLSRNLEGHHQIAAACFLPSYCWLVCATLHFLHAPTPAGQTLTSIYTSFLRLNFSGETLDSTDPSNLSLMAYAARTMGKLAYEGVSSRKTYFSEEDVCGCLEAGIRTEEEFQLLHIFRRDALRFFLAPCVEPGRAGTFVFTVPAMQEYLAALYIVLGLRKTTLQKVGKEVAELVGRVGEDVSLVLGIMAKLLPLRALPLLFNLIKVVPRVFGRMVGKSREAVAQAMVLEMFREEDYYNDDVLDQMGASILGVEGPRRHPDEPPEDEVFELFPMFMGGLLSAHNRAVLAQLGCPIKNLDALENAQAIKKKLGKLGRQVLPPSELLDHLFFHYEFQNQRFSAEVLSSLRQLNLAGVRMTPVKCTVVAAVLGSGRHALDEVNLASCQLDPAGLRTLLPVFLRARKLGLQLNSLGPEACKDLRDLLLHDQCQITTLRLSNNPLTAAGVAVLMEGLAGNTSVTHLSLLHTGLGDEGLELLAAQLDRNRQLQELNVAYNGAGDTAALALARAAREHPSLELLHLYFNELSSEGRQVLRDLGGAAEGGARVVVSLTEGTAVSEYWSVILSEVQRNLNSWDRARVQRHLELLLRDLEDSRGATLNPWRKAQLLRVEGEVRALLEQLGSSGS
# UniProt A6NEC2: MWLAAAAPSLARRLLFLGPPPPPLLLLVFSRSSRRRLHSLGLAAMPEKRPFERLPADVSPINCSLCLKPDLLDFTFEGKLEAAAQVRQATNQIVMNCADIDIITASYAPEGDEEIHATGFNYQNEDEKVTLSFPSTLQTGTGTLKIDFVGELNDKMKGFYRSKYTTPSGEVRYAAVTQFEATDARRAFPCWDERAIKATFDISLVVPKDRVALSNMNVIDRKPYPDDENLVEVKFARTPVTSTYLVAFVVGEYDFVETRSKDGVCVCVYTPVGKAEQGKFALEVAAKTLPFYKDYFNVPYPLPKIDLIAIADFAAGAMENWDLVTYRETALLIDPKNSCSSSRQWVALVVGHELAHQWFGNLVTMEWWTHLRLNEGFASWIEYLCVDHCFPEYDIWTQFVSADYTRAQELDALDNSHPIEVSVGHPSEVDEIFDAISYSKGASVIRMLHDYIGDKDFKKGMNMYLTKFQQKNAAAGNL
# This is one part of the list.
# Compound: CC1Cc2ccccc2N1C(=O)C1CCCN(C1)C(=O)CCl (mixture of isomers) [TRIM25 ligand 11 (diastereomer mixture)]
# Experiment: probe-labelled cysteine peptide fold change vs DMSO (competition) (log2 fold change); higher = less target engagement (more negative = stronger competition)
# Details: 10 µM; THP-1; incubation time: 4 h
# 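Note: competitive chemoproteomic profiling in live THP-1 cells with an iodoacetamide desthiobiotin (IA-DTB) probe, comparing probe-labelled peptide intensities in compound-treated cells against DMSO-treated controls.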
row,Target,probe-labelled cysteine peptide fold change
1,NPEPL1_Q8NDH3_404+414_CGDLVHPLVYCPELHFSEFTSAVADMK (UniProt Q8NDH3),-0.0205
2,NOL9_Q5SY16_637_TVNCLLVGAIAIPHCVLK (UniProt Q5SY16),-0.12
3,NOP56_O00567_142_GLTDLSACK (UniProt O00567),0.0105
4,NSD2_O96028_1245_CGDGGQLVLCDR (UniProt O96028),-0.171
5,NSD1_Q96L73_2072_CGAPNCSGFLGVRPK (UniProt Q96L73),-0.0879
6,NOCT_Q9UK39_165_DNFVQCPVEALKWEER (UniProt Q9UK39),-0.00173
7,NOP9_Q86U38_141_CGVHVLQSALLQLPR (UniProt Q86U38),0.0871
8,NSMCE1_Q8WV22_207_ICNICHSLLIQGQSCETCGIR (UniProt Q8WV22),-0.0916
9,NSD1_Q96L73_2077_CGAPNCSGFLGVRPK (UniProt Q96L73),-0.0849
10,NOL9_Q5SY16_605_GYTNGPILLAQTPICDCLGFGICR (UniProt Q5SY16),0.436
11,NOC4L_Q9BVI4_99_YHSCCNR (UniProt Q9BVI4),0.22
12,NPRL2_Q8WTW4_9_IECIFFSEFHPTLGPK (UniProt Q8WTW4),-0.0194
13,NKRF_O15226_242_LLTDGYACEVR (UniProt O15226),-0.0173
14,NSMAF_Q92636_809_EGTVNIWDLTTATLMHQIPCHSGIVCDTAFSPDSR (UniProt Q92636),-0.431
15,NSUN2_Q08J23_93_EILHCLK (UniProt Q08J23),0.0809
16,NIT2_Q9NQR4_97_LYNTCAVFGPDGTLLAK (UniProt Q9NQR4),0.0749
17,NOMO2_Q5JPE7_411_IAPNTPQLADIVATGFSVCGR (UniProt Q5JPE7),0.0887
18,NOTCH1_P46531_2140_SPQLHGAPLGGTPTLSPPLCSPNGYLGSLKPGVQGK (UniProt P46531),-0.134

row,Target,probe-labelled cysteine peptide fold change
1,NRBP2_Q9NSY0_34_EREDESEDESDILEESPCGR (UniProt Q9NSY0),0.125
2,NSMCE4A_Q9NXX6_226_THTFHFLLGSIYGECPVPKPR (UniProt Q9NXX6),-0.243
3,NSUN2_Q08J23_271_ILCDVPCSGDGTMR (UniProt Q08J23),0.00478
4,NPTN_Q9Y639_259_NEGQDATMYCK (UniProt Q9Y639),-0.0675
5,NRDC_O43847_1027_ECEDTHLGEEVDRNWNEVVTQQYLFDR (UniProt O43847),0.162
6,NSD1_Q96L73_1312_CEEESLLAR (UniProt Q96L73),-0.085
7,NPM3_O75607_41_VPAPVTMDSFFFGCELSGHTR (UniProt O75607),-0.197
8,NOP58_Q9Y2X3_439_TYDPSGDSTLPTCSK (UniProt Q9Y2X3),0.142
9,NPC1_O15118_1261_SCATEER (UniProt O15118),-0.127
10,NOP16_Q9Y3C1_36_IECSHIR (UniProt Q9Y3C1),0.0394
11,NOL8_Q76FK4_1020_EEGTPWNEDCGK (UniProt Q76FK4),-0.0925
12,NLRX1_Q86UT6_644_AVLAQLGCPIK (UniProt Q86UT6),-0.0132
13,NRDE2_Q9H7Z3_608_QTEEDCEDPER (UniProt Q9H7Z3),0.125
14,NPEPPSL1_A6NEC2_339_NSCSSSR (UniProt A6NEC2),0.0136
15,NPAT_Q14207_1172_ENELCSDVER (UniProt Q14207),-0.152
16,NOL8_Q76FK4_517_SDGPETTTQCK (UniProt Q76FK4),-0.0163
17,NSD3_Q9BZ95_1292_SACASTNEEK (UniProt Q9BZ95),-0.0117

# Same assay, conditions: 50 µM; THP-1; incubation time: 4 h
row,Target,probe-labelled cysteine peptide fold change
1,NPEPL1_Q8NDH3_404+414_CGDLVHPLVYCPELHFSEFTSAVADMK (UniProt Q8NDH3),-0.278
2,NOL9_Q5SY16_637_TVNCLLVGAIAIPHCVLK (UniProt Q5SY16),-0.178
3,NOP56_O00567_142_GLTDLSACK (UniProt O00567),-0.0898
4,NSD2_O96028_1245_CGDGGQLVLCDR (UniProt O96028),-0.261
5,NSD1_Q96L73_2072_CGAPNCSGFLGVRPK (UniProt Q96L73),0.0692
6,NOCT_Q9UK39_165_DNFVQCPVEALKWEER (UniProt Q9UK39),-0.4
7,NOP9_Q86U38_141_CGVHVLQSALLQLPR (UniProt Q86U38),0.129
8,NSMCE1_Q8WV22_207_ICNICHSLLIQGQSCETCGIR (UniProt Q8WV22),0.0523
9,NSD1_Q96L73_2077_CGAPNCSGFLGVRPK (UniProt Q96L73),0.0745
10,NOL9_Q5SY16_605_GYTNGPILLAQTPICDCLGFGICR (UniProt Q5SY16),0.153
11,NOC4L_Q9BVI4_99_YHSCCNR (UniProt Q9BVI4),0.205
12,NPRL2_Q8WTW4_9_IECIFFSEFHPTLGPK (UniProt Q8WTW4),0.145
13,NKRF_O15226_242_LLTDGYACEVR (UniProt O15226),0.14
14,NSMAF_Q92636_809_EGTVNIWDLTTATLMHQIPCHSGIVCDTAFSPDSR (UniProt Q92636),0.3
15,NSUN2_Q08J23_93_EILHCLK (UniProt Q08J23),0.0592
16,NIT2_Q9NQR4_97_LYNTCAVFGPDGTLLAK (UniProt Q9NQR4),0.139
17,NOMO2_Q5JPE7_411_IAPNTPQLADIVATGFSVCGR (UniProt Q5JPE7),-0.00984
18,NOTCH1_P46531_2140_SPQLHGAPLGGTPTLSPPLCSPNGYLGSLKPGVQGK (UniProt P46531),-0.381

row,Target,probe-labelled cysteine peptide fold change
1,NRBP2_Q9NSY0_34_EREDESEDESDILEESPCGR (UniProt Q9NSY0),0.0222
2,NSMCE4A_Q9NXX6_226_THTFHFLLGSIYGECPVPKPR (UniProt Q9NXX6),-0.313
3,NSUN2_Q08J23_271_ILCDVPCSGDGTMR (UniProt Q08J23),-0.00859
4,NPTN_Q9Y639_259_NEGQDATMYCK (UniProt Q9Y639),-0.0536
5,NRDC_O43847_1027_ECEDTHLGEEVDRNWNEVVTQQYLFDR (UniProt O43847),0.0767
6,NSD1_Q96L73_1312_CEEESLLAR (UniProt Q96L73),-0.0853
7,NPM3_O75607_41_VPAPVTMDSFFFGCELSGHTR (UniProt O75607),0.0189
8,NOP58_Q9Y2X3_439_TYDPSGDSTLPTCSK (UniProt Q9Y2X3),-0.0692
9,NPC1_O15118_1261_SCATEER (UniProt O15118),-0.00549
10,NOP16_Q9Y3C1_36_IECSHIR (UniProt Q9Y3C1),-0.165
11,NOL8_Q76FK4_1020_EEGTPWNEDCGK (UniProt Q76FK4),-0.0722
12,NLRX1_Q86UT6_644_AVLAQLGCPIK (UniProt Q86UT6),0.00874
13,NRDE2_Q9H7Z3_608_QTEEDCEDPER (UniProt Q9H7Z3),-0.113
14,NPEPPSL1_A6NEC2_339_NSCSSSR (UniProt A6NEC2),-0.0896
15,NPAT_Q14207_1172_ENELCSDVER (UniProt Q14207),-0.13
16,NOL8_Q76FK4_517_SDGPETTTQCK (UniProt Q76FK4),-0.0828
17,NSD3_Q9BZ95_1292_SACASTNEEK (UniProt Q9BZ95),-0.0332
